These are yes or no findings as the source states them, for the method shown. Binding seen in cells or lysates may run through a third protein. Binding calls can cover weak binding; strength is not graded here.

Drawing on paper PMC6454016, this text covers binding for 1 substance.

For the test, the target named is T1, Tripartite Motif Protein 4 (TRIM4), endogenous (human (endogenous in RD)) (UniProt Q9C037).
T1 sequence: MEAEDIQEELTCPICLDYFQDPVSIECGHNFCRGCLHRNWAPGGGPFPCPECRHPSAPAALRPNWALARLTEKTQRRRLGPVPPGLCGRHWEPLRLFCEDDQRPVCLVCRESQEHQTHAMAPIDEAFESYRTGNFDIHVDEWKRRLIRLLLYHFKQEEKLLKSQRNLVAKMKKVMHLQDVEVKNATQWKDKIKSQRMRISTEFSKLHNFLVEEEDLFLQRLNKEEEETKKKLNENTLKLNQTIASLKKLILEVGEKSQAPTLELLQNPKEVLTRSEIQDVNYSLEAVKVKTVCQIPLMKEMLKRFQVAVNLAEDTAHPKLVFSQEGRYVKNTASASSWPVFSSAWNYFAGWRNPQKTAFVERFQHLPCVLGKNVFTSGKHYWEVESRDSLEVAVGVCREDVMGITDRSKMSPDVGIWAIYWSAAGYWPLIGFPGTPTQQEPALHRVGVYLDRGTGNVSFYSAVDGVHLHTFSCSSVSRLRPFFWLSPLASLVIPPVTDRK
Description: co-IP.

“EV-A71 2C protein made during infection (enterovirus A71 (Fuyang strain))”: the binding result is listed as “binds”.
